Reference: paper PMC8500422
These are yes or no findings as the source states them, for the method shown. In cells and extracts the contact can be indirect. Some results given as binding are weak or reduced against the parent protein; the word gives no strength. Where a sequence is shown, tags or fusion partners need not be part of it.

Columns and labels:
EGFP-fused BROMI (human) = molecular target: T1, EGFP-fused BROMI (human) (UniProt Q96NH3); assay: co-IP; the beads of the VIP assay (EGFP-fused protein precipitated with GST-tagged anti-GFP Nb from HEK293T lysates) subjected to SDS-PAGE and immunoblotting with anti-mChe or anti-GFP antibody
T1 sequence: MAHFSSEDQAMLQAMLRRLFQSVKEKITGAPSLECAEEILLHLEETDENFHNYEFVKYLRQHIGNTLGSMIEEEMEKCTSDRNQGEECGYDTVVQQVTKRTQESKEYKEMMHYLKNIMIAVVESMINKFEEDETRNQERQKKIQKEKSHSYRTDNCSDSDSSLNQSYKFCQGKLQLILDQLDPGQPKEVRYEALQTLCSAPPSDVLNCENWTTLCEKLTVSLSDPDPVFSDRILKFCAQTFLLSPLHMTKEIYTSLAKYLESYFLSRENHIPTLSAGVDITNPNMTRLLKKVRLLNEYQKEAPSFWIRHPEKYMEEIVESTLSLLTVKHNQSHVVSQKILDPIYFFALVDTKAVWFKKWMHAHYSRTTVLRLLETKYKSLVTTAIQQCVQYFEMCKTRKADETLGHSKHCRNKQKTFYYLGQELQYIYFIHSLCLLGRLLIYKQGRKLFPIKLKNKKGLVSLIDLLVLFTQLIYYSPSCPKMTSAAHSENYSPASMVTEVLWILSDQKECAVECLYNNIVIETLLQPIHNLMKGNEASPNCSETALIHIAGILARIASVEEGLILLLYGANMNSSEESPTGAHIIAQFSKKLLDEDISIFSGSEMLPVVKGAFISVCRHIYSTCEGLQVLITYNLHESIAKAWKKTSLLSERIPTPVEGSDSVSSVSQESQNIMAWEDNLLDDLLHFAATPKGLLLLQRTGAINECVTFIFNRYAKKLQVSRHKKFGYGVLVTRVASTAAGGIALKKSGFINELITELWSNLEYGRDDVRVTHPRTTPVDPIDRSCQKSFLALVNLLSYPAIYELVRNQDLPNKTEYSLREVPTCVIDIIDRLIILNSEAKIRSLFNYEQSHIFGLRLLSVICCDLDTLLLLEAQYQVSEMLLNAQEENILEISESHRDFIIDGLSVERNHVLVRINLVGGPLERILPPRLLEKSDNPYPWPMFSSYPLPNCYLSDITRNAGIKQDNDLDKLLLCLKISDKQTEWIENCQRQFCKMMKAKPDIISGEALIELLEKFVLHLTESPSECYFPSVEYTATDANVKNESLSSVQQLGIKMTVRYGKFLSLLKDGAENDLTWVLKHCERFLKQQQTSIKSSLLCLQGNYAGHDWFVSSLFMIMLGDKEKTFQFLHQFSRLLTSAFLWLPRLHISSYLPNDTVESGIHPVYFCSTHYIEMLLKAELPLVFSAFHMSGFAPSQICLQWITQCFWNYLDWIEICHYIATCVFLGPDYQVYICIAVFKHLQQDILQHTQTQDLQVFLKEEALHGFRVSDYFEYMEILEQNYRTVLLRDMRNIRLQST

[1] = molecular target: T2, EGFP-fused BROMI(243–1,298) (human) (UniProt Q96NH3); assay: as above
T2 sequence: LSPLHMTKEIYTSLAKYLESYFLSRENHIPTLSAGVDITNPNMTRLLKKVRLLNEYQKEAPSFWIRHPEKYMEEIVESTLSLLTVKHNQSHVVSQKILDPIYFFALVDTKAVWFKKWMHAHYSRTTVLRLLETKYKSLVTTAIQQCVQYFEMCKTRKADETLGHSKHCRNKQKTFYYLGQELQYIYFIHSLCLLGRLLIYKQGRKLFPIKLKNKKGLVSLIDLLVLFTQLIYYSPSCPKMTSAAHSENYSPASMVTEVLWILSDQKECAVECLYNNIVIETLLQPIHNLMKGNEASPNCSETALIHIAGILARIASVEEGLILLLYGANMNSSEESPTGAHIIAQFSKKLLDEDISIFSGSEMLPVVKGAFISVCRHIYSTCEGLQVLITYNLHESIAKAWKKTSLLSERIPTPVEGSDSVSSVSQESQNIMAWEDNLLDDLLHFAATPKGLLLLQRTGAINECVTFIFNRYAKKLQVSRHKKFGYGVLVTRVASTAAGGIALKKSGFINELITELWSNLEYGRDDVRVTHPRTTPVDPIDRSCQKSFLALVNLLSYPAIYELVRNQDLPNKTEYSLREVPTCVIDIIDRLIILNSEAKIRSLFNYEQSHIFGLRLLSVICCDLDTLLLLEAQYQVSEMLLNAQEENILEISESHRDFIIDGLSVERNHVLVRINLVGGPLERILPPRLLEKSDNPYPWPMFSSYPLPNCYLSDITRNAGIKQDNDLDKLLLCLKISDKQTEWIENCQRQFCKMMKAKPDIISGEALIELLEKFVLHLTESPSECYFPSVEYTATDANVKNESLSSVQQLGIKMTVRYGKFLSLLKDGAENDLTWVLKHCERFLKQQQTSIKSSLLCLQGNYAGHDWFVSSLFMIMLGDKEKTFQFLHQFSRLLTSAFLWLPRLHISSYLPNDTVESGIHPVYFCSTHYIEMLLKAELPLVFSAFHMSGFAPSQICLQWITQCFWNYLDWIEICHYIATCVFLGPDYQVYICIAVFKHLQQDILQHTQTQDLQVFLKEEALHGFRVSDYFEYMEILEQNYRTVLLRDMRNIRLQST

## CCRK-mChe (from UniProt Q8IZL9-1 1-346)
EGFP-fused BROMI (human)
  binding: binds
[1]
  binding: binds
